Laboratory results: patent publication US20190119298A1, “FUSED 3-PHENYLTETRAMIC ACID DERIVATIVES HAVING HERBICIDAL ACTION” (Bayer CropScience Aktiengesellschaft, priority 2016, published 2019)
Some of these results come from one statement about several compounds together. Some ranges recur; such a range may be that of the whole group of compounds.

Assays:
Type in all cases: in vivo
[1] = tested on: Lolium multiflorum; test: Pre-emergence herbicidal effect; settings: 320 g/ha, scored visually after 3 weeks vs untreated controls, 100% = plants have died
Text: (§1) Seeds of monocotyledonous and dicotyledonous weed plants and crop plants are laid out in sandy loam soil in wood-fibre pots and covered with soil. The compounds of the invention, formulated in the form of wettable powders (WP) or as emulsion concentrates (EC), are then applied to the surface of the covering soil as aqueous suspension or emulsion at a water application rate equating to 600 to 800 L/ha with addition of 0.2% wetting agent. After the treatment, the pots are placed in a greenhouse and kept under good growth conditions for the trial plants. The damage to the test plants is scored visually after a test period of 3 weeks by comparison with untreated controls (herbicidal activity in percent (%): 100% activity=the plants have died, 0% activity=like control plants). LOLMU: Lolium multiflorum

[2] = tested on: Setaria viridis; test: Post-emergence herbicidal effect; settings: one-leaf stage, 320 g/ha, assessed visually after about 3 weeks, 100% = plants have died
Protocol: (§2) SETVI: Setaria viridis Seeds of monocotyledonous and dicotyledonous weed and crop plants are laid out in sandy loam soil in wood-fibre pots, covered with soil and cultivated in a greenhouse under good growth conditions. 2 to 3 weeks after sowing, the test plants are treated at the one-leaf stage. The compounds of the invention, formulated in the form of wettable powders (WP) or as emulsion concentrates (EC), are then sprayed onto the green parts of the plants as aqueous suspension or emulsion at a water application rate equating to 600 to 800 L/ha with addition of 0.2% wetting agent. After the test plants have been left to stand in the greenhouse under optimal growth conditions for about 3 weeks, the action of the preparations is assessed visually in comparison to untreated controls (herbicidal action in percent (%): 100% activity=the plants have died, 0% activity=like control plants).

[3] = tested on: Cyperus esculentus; test: Pre-emergence herbicidal effect; settings: application rate 320 g/ha
[4] = tested on: Setaria viridis; test: Pre-emergence herbicidal effect; settings: 320 g/ha, scored visually after 3 weeks vs untreated controls, 100% = plants have died
Text: as §1, with “SETVI: Setaria viridis” for “LOLMU: Lolium multiflorum”

[5] = tested on: Avena fatua; test: Pre-emergence herbicidal effect; settings: 320 g/ha, scored visually after 3 weeks vs untreated controls, 100% = plants have died
Text: as §1, with “AVEFA: Avena fatua” for “LOLMU: Lolium multiflorum”

[6] = tested on: Lolium multiflorum; test: Post-emergence herbicidal effect; settings: one-leaf stage, 320 g/ha, assessed visually after about 3 weeks, 100% = plants have died
Protocol: as §2, with “LOLMU: Lolium multiflorum” for “SETVI: Setaria viridis”

[7] = tested on: Echinochloa crus-galli; test: Pre-emergence herbicidal effect; settings: 320 g/ha, scored visually after 3 weeks vs untreated controls, 100% = plants have died
Text: as §1, with “ECHCG: Echinochloa crus-galli” for “LOLMU: Lolium multiflorum”

[8] = tested on: Echinochloa crus-galli; test: Post-emergence herbicidal effect; settings: one-leaf stage, 320 g/ha, assessed visually after about 3 weeks, 100% = plants have died
Protocol: as §2, with “ECHCG: Echinochloa crus-galli” for “SETVI: Setaria viridis”

[9] = tested on: Avena fatua; test: Post-emergence herbicidal effect; settings: one-leaf stage, 320 g/ha, assessed visually after about 3 weeks, 100% = plants have died
Protocol: as §2, with “AVEFA: Avena fatua” for “SETVI: Setaria viridis”

[10] = tested on: Alopecurus myosuroides; test: Post-emergence herbicidal effect; settings: one-leaf stage, 320 g/ha, assessed visually after about 3 weeks, 100% = plants have died
Protocol: as §2, with “ALOMY: Alopecurus myosuroides” for “SETVI: Setaria viridis”

[11] = tested on: Alopecurus myosuroides; test: Pre-emergence herbicidal effect; settings: 320 g/ha, scored visually after 3 weeks vs untreated controls, 100% = plants have died
Text: as §1, with “ALOMY: Alopecurus myosuroides” for “LOLMU: Lolium multiflorum”

CCOC(=O)OC1=C(c2c(CC)cc(C)cc2CC)C(=O)N2CCOCCC12 (centres unmarked) [Ib-1-2]
Pre-emergence action LOLMU (herbicidal activity in percent) [1]: 80-100% | Post-emergence effectiveness SETVI (herbicidal action in percent) [2]: 90-100% | Pre-emergence effect against Cyperus esculentus [3]: 80-100% | Pre-emergence action SETVI (herbicidal activity in percent) [4]: 80-100% | Pre-emergence action AVEFA (herbicidal activity in percent) [5]: 80-100% | Post-emergence effectiveness LOLMU (herbicidal action in percent) [6]: 90-100% | Pre-emergence action ECHCG (herbicidal activity in percent) [7]: 80-100% | Post-emergence effectiveness ECHCG (herbicidal action in percent) [8]: 90-100% | Post-emergence effectiveness AVEFA (herbicidal action in percent) [9]: 90-100% | Post-emergence effectiveness ALOMY (herbicidal action in percent) [10]: 90-100% | Pre-emergence action ALOMY (herbicidal activity in percent) [11]: 80-100%
